In paper doi:10.1101/2024.07.05.602290:
These are yes or no findings as the source states them, for the method shown. Binding seen in cells or lysates may run through a third protein. Some results given as binding are weak or reduced against the parent protein; the word gives no strength.

Protein sequences, listed by entry. Tags and fused reporters are not part of them. Lines headed by an entry give the natural chain unless they say otherwise; changes in a name come on top. Residues count along the entry.
UniProt P05161, residues 1-157: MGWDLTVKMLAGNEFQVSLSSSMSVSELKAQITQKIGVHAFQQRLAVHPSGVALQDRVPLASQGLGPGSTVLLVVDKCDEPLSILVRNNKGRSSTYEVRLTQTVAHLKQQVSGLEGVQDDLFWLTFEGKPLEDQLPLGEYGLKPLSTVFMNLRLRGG
UniProt P08648: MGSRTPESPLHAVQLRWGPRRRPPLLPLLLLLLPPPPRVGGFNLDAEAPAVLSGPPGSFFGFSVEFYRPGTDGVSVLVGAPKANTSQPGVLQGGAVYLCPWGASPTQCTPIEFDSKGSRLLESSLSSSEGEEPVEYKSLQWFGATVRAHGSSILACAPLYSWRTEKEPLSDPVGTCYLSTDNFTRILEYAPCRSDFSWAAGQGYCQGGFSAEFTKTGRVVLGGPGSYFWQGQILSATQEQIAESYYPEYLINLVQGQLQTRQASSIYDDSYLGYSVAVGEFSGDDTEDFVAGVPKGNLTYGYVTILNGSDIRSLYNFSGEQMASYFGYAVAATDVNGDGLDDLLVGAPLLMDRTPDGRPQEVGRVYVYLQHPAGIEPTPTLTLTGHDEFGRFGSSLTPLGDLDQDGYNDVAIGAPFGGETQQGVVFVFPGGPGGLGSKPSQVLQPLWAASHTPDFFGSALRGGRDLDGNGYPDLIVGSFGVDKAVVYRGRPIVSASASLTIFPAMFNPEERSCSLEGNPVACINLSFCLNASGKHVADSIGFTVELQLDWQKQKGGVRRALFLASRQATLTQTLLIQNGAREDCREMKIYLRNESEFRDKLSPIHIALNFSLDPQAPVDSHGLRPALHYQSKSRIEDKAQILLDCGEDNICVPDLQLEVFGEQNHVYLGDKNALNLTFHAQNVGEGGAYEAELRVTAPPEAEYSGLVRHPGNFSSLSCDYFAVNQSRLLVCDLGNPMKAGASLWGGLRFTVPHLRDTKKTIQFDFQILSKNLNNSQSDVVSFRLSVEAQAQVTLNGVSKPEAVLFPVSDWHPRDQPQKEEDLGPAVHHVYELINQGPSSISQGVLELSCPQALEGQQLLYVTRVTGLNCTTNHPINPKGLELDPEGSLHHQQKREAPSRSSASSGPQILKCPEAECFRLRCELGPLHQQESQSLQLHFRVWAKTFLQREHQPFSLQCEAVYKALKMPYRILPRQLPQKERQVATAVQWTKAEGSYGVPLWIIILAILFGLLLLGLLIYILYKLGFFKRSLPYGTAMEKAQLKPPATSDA

Molecular target: purified recombinant ISG15 protein (Interferon Stimulated Gene 15) (UniProt P05161)
Test: co-IP

Substance: cell surface α5β1 integrin of A549 cells (from UniProt P08648 42-1049; P05556 21-798) (receptor)
- binding: binds
